Assay results taken from publication PMC8274477.
No constants are given. Whether binding was seen depends on the method and setting. Some binding calls cover weakened binding; strength is not graded here.

Amino acid sequences for entries named in this document (tags omitted). Residues count along the entry.
UniProt Q9H1K1, residues 35-167: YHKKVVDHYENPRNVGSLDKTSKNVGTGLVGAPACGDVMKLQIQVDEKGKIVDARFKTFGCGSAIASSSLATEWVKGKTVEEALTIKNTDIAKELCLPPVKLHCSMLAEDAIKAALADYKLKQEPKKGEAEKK
UniProt P07910: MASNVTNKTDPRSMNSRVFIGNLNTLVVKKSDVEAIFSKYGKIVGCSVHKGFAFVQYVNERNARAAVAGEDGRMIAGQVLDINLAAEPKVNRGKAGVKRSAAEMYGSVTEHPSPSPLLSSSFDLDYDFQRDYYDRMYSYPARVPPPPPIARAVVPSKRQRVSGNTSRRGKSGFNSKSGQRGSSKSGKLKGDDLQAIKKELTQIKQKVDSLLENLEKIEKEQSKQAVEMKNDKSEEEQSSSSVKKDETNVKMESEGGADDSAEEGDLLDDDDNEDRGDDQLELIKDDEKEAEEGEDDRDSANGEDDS
UniProt P09651: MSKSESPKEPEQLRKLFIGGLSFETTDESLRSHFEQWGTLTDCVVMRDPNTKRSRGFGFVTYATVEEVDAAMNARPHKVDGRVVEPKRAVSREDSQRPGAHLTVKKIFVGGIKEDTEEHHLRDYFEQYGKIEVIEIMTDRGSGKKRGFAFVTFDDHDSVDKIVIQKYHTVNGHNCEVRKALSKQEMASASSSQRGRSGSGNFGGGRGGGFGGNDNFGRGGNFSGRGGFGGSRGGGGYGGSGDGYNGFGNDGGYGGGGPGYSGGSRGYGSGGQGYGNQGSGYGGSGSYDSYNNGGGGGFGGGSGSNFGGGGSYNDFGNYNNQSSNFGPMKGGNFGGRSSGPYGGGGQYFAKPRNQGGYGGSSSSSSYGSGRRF

Legend:
Assay in all cases: peptide or protein array; HuProt human proteome microarray; 5 ug/5 ml biotin-labelled LUBAC or OTULIN in solution, 1 h at room temperature; Cy5-streptavidin, scanned at 635 nm; BSA as negative control; hits: Z-score >= 3 and I_(Mean_Ratio) >= 1.4; both purified
ISCU (human) = ISCU (human) (UniProt Q9H1K1)
NFYC (human) = target: T1, NFYC (human) (UniProt Q13952)
T1 sequence: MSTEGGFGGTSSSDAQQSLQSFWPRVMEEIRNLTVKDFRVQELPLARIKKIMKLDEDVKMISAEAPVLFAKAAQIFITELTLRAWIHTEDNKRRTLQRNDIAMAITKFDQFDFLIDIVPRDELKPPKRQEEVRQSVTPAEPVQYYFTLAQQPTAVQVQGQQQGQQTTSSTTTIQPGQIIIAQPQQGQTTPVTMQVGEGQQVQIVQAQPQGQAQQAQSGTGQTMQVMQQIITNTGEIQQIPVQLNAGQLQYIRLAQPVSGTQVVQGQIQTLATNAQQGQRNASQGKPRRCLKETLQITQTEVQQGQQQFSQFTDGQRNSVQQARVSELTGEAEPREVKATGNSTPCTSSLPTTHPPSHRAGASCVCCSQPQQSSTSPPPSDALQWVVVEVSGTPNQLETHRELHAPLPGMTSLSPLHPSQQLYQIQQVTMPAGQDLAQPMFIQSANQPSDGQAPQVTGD

Irx5 = target: T2, Irx5 (UniProt P78411)
T2 sequence: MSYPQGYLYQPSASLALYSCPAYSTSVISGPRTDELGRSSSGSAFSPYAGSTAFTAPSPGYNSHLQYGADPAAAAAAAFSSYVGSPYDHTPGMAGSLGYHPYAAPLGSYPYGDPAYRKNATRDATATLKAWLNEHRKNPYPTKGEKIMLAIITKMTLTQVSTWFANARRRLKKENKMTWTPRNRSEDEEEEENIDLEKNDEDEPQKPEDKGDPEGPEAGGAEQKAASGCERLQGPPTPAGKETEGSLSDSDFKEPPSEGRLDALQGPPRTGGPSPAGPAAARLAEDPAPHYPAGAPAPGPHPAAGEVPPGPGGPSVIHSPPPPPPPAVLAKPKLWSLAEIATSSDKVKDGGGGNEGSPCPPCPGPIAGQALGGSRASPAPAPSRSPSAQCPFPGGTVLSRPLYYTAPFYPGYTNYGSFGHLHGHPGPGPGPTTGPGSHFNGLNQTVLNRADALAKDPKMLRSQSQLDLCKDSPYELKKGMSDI

HNRNPC (human) = HNRNPC (human) (UniProt P07910)
HNRNPA1 (human) = HNRNPA1 (human) (UniProt P09651)
STAU2 (human) = target: T3, STAU2 (human) (UniProt Q9NUL3)
T3 sequence: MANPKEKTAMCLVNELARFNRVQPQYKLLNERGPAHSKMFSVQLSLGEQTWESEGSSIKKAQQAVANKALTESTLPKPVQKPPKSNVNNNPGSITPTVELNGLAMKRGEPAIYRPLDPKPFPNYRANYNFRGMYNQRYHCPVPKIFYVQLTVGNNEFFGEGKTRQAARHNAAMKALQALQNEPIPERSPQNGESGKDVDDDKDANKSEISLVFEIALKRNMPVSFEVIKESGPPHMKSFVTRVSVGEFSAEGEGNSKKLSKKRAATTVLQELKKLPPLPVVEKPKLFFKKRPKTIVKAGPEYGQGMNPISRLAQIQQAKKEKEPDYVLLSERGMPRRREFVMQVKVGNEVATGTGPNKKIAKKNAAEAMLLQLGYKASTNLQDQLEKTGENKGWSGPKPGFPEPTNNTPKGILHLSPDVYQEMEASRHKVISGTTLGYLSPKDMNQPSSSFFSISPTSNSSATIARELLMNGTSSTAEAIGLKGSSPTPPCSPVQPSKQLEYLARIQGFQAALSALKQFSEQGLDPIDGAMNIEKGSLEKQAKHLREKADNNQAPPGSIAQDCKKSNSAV

ANGPTL2 (human) = target: T4, ANGPTL2 (human) (UniProt Q9UKU9)
T4 sequence: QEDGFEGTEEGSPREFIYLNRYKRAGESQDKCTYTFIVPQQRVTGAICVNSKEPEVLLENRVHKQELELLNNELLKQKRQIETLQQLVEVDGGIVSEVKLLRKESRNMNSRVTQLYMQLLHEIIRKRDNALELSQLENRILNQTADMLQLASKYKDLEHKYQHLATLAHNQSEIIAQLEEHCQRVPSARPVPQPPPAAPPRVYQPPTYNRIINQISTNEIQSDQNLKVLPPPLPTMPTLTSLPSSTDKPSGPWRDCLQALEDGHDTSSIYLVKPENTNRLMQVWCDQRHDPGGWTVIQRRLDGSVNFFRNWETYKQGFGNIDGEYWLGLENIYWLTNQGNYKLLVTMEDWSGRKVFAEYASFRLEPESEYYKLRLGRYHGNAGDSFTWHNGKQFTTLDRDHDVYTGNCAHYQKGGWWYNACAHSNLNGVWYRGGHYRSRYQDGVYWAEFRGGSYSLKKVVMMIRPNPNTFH

Measured: binding

OTULIN (OTU deubiquitinase with linear linkage specificity, FAM105B), His-tagged, biotin-labelled (from UniProt Q96BN8 1-352) (enzyme)
binds: all assays above

linear ubiquitin chain assembly complex (LUBAC), purified as HIS-tagged HOIP with the subunit HOIL-1, biotin-labelled (from UniProt Q96EP0 1-1072; Q9BYM8 1-510)
binds: all assays above
